Here are results for 8 compounds from PubChem BioAssay AID720625 (Broad Institute, 2013).

The other results are listed elsewhere or left out. The source made no clear call on entries shown without one.

A short description of this experiment: time-course apoptosis signal, HRAS cell line – caspase 3/7 luminescence, plate reader, dry powder, mechanism study for HRAS target identification (AID 720625). The settings on record: HRAS cells, caspase 3/7 apoptosis luminescence, multiple timepoints; at 35 µM (top of the series).
`CCC(=O)N(c1ccc(OC)c(Cl)c1)C(C(=O)NCCc1ccccc1)c1cccs1` (stereo not drawn): the caspase activation was 20.9%. Take `C#CCCCC(=O)NCCOCCOCCOc1ccc(N(C(=O)CCl)C(C(=O)NCCc2ccccc2)c2cccs2)cc1Cl` (stereo not drawn): the caspase activation is 24.9%. Take `O=C(NCCOCCOCCOc1ccc(N(C(=O)CCl)C(C(=O)NCCc2ccccc2)c2cccs2)cc1Cl)c1ccc(COC2C#CCCCCC2)cc1` (stereo not drawn): the caspase activation was determined as 3.3%. The value for `Cc1onc(C(=O)N2CCN(C(c3ccc(Cl)cc3)c3ccc(Cl)cc3)CC2)c1[N+](=O)[O-]` was 16.3%. `CC(C)(C)OC(=O)NCCOCCOCCOc1ccc(N(C(=O)CCl)C(C(=O)NCCc2ccccc2)c2cccs2)cc1Cl` (stereo not drawn): the caspase activation came out at 2.2%. On to `CO[C@H]1C[C@@H]2CC[C@@H](C)[C@@](O)(O2)C(=O)C(=O)N2CCCC[C@H]2C(=O)O[C@H]([C@H](C)C[C@@H]2CC[C@@H](O)[C@H](OC)C2)CC(=O)[C@H](C)/C=C(\C)[C@@H](O)[C@@H](OC)C(=O)[C@H](C)C[C@H](C)/C=C/C=C/C=C/1C`, for which the caspase activation amounted to 11.7%. For `Cc1onc(C(=O)N2CCN(C(c3ccc(Cl)cc3)c3ccc(OCCOCCOCCNC(=O)OC(C)(C)C)cc3)CC2)c1[N+](=O)[O-]` (stereo not drawn), the caspase activation is 5.07%.

As to `COc1cccc2c1C(=O)c1c(O)c3c(c(O)c1C2=O)C[C@@](O)(C(=O)CO)C[C@@H]3OC1C[C@H](N)[C@H](O)[C@H](C)O1` (stereo partly drawn), the caspase activation was -4.18%.
